# Assay results published in paper PMC7082075.
# Target: T1, MBP-SNX5^PX (UniProt Q9Y5X3)
# T1 sequence: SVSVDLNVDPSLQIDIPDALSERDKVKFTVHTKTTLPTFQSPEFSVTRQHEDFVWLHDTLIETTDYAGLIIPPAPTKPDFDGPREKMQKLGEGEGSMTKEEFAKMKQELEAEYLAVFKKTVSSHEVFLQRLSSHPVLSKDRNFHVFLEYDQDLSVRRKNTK
# Assay: pull-down; competition: GST-CI-MPR pull-down of purified MBP-SNX5^PX in the presence or absence of IncE at stated molar ratios; Coomassie staining; both purified
substance,measurement,value
IncE (Chlamydia trachomatis),binding,binds

# No constants are given. Whether binding was seen depends on the method and setting. A result given as binding can be weak or reduced; the word gives no strength. Tags and fused reporters may be left off the sequences shown.
